Results on 42 compounds are retold here after PubChem BioAssay AID493014 (National Center for Advancing Translational Sciences (NCATS), 2011).

The list shows a part of the results. The main result of the screen is listed elsewhere. These columns were measured beside it and carry no call. The list favours compounds with an active or inconclusive main result. The note in brackets gives the kind of curve behind each potency; many fits are weak.

The assay is described as follows: qHTS Assay to Find Inhibitors of Chronic Active B-Cell Receptor Signaling. Conditions: ABC-DLBCL IkBa-CBG/CBR reporter, luminescence ratio (green luciferase fused to IkBa over red control in TMD8 lymphoma cells), 4 h. The essentials:
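Concentration-response series (up to 46 uM) were applied to TMD8 dual-reporter cells for 4 h at 37C with doxycycline. Green/red ratio, after filter-overlap correction, defined %Activity; red signal alone was normalised to basal cells and zero luminescence.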
In general terms: qHTS replaces the single test concentration by a dilution series.

Setting [1] is: measured here: CBR red luminescence, cell number.
The mark [2] stands for this setting: measured here: IkBa-CBG green luminescence.

A word on the AC50: it is the concentration giving half of the maximal activity seen. For the compound `O=C1CCCC2=C1C(c1ccccc1)NC(=S)N2` (centres undefined), the AC50 under setting [1] is 4.47 µM [falling, full curve].
As for `O=C(NN1C(=O)NC2(CCCCC2)C1=O)c1cc(F)cc(F)c1`, the AC50 under setting [1] is 2.06 µM [rising, partial curve, poor fit].
Regarding `Cc1ccc(-n2c(-c3cn(C)nc3C)n[nH]c2=S)cc1`, the AC50 under setting [1] was 20 µM [rising, single point].
In the case of `COCCN(CCOC)c1ncnc2c1cnn2-c1ccc(Cl)cc1`, under setting [1], the AC50 is 16.4 µM [rising, partial curve, poor fit].
For the compound `COc1ccc(S(=O)(=O)NCc2ccccn2)cc1Cl`, under setting [1], the half-maximal activity concentration (AC50) was 0.259 µM [falling, full curve, poor fit].
As for `O=c1c2ccccc2nc(COc2ccccc2)n1/N=C/c1ccc(O)cc1O`, under setting [1], the AC50 is 12.6 µM [falling, single point].
In the case of `CN(C)c1ccc(C(=O)OCC(=O)NC2CCCCC2)cc1`, under setting [1], the AC50 is 32.6 µM [rising, single point].
Turning to `N#Cc1cccc(C(=O)OCC(=O)N2CCCc3ccccc32)c1`, the concentration at half-maximal activity (AC50) under setting [1] was 29.1 µM [falling, single point].
The same measure, in the same setting: the value for `CSc1ccccc1OCc1cc(C(=O)N(C)C(C)c2nc(C)cs2)no1` (centres undefined) was 20 µM [falling, partial curve, poor fit]; that for `O=C(CC1SC(=NCCc2ccccc2)N(/N=C/c2cccs2)C1=O)Nc1ccc(Cl)cc1` (centres undefined) was 0.517 µM [rising, full curve, poor fit]; that for `Cc1ccc(C(=O)OCC(=O)N(C)c2c(N)n(Cc3ccccc3)c(=O)[nH]c2=O)s1` was 4.61 µM [rising, partial curve, poor fit].
As for `CC(=O)CCc1c(C)nc2ccc(C(=O)O)cc2c1Cl`, the AC50 under setting [2] is 14.6 µM [rising, partial curve, poor fit].
As for `CCc1ccc(NC(=O)c2cnccn2)cc1`, the AC50 under setting [1] is 35.5 µM [falling, single point].
Turning to `C=CCSc1nc2ccsc2c(=O)n1-c1ccccc1`, under setting [1], the AC50 was 35.5 µM [rising, single point].
For `Cc1[nH]n(C(N)=S)c(=O)c1N=Nc1ccc2ccccc2c1`, the AC50 under setting [1] was 31.6 µM [falling, single point] and the half-maximal activity concentration (AC50) under setting [2] was 0.631 µM [falling, partial curve, poor fit].
Consider `Cc1nc2ccccc2c2oc(C(=O)N3CCc4ccccc4C3)cc12`, for which the AC50 under setting [1] is 0.58 µM [falling, partial curve, poor fit].
In the case of `O=C(O)c1ccc(CSC2CCCCC2)cc1`, under setting [1], the AC50 was 35.5 µM [rising, single point].
As to `Cc1nc(SCC(=O)Nc2cccc(C(=O)O)c2)n[nH]1`, the AC50 under setting [1] was 14.1 µM [falling, partial curve, poor fit].
Take `Cc1ccc(C(=O)COC(=O)c2cccc([N+](=O)[O-])c2)s1`: the concentration at half-maximal activity (AC50) under setting [1] is 6.51 µM [rising, full curve, poor fit].
`CCCn1c(=O)c(C(=O)N/N=C/c2ccccc2F)c(O)c2ccccc21`: the AC50 under setting [1] is 5.62 µM [falling, full curve, poor fit].
In the case of `COc1ccc(NC(=O)CSc2nccn2C2CCCC2)cc1OC`, the AC50 under setting [1] is 0.562 µM [falling, full curve, poor fit].
Regarding `Cc1ccc(C2OC(=O)c3ccccc32)cc1` (centres undefined), under setting [1], the AC50 is 16.4 µM [rising, single point].
On to `CN(C)c1ccc2c3c(cccc13)C(=O)N(c1ccccc1)C2=O`, for which, under setting [1], the half-maximal activity concentration (AC50) was 35.5 µM [rising, single point].
On to `COC(=O)C1CCN(C(=O)COC(=O)C2CCN(S(=O)(=O)c3ccc(C)c(C)c3)CC2)CC1`, for which the AC50 under setting [1] is 0.103 µM [falling, full curve, poor fit].
`COc1ccc(C(=O)NC2=NCCS2)cc1S(=O)(=O)N1CCCCC1C` (centres undefined): the AC50 under setting [1] was 35.5 µM [falling, partial curve, poor fit].
Turning to `O=C(NCc1ccco1)c1cc2ccc(O)cc2oc1=O`, the AC50 under setting [1] is 11.2 µM [falling, partial curve].
For the compound `O=C(NCCc1ccc(Cl)cc1)C1CCCN1C(=O)Nc1ccc(F)cc1` (centres undefined), under setting [1], the AC50 was 6.31 µM [falling, partial curve, poor fit].
`O=C(Nc1ccccc1)NN(C(=O)CCl)c1ccccc1`: the AC50 under setting [1] is 0.562 µM [falling, full curve].
The same measure, in the same setting: in the case of `COC(=O)[C@H](C)N(Cc1ccc(Cl)c(Cl)c1)S(=O)(=O)CCNC1CCCC1` it was 29.1 µM [falling, single point]; in that of `OCCN1CCN(CCCN2c3ccccc3Sc3ccc(Cl)cc32)CC1`, 4.47 µM [falling, partial curve].
With `CCOC(=O)/C=C/C(=O)Nc1nccs1`, the half-maximal activity concentration (AC50) was 20.6 µM [falling, single point] under setting [1] and 5.8 µM [rising, full curve, poor fit] under setting [2].
Regarding `N#Cc1ccccc1NC(=O)CC1c2ccccc2Oc2ccccc21`, under setting [1], the AC50 was 29.1 µM [rising, single point].
As to `C/C(=N\Nc1cccc2cccnc12)c1ccc(N)cc1`, the AC50 under setting [1] was 7.94 µM [falling, partial curve].
With `O=C(CSCc1ccc(Cl)cc1)Nc1ccc(O)cc1C(=O)O`, under setting [1], the half-maximal activity concentration (AC50) was 12.6 µM [falling, partial curve].
As to `O=C1NC2c3ccccc3C(=O)N2c2c1cnn2-c1ccccc1` (centres undefined), the AC50 under setting [1] is 18.4 µM [rising, partial curve, poor fit].
Regarding `O=C(Nc1nsc(-c2ccccc2)n1)c1ccncc1`, the half-maximal activity concentration (AC50) under setting [1] is 14.1 µM [falling, single point].
Regarding `O=C(N/N=C/c1ccc(N2CCOCC2)o1)c1cccc([N+](=O)[O-])c1`, the half-maximal activity concentration (AC50) under setting [1] was 25.9 µM [rising, single point].
With `O=C(CCS(=O)(=O)c1ccc(Br)cc1)N1CCN(c2ccccc2Cl)CC1`, the AC50 under setting [1] was 16.4 µM [rising, single point].
As to `CC(=O)N1CCc2c(sc(NC(=O)c3ccc([N+](=O)[O-])o3)c2C#N)C1`, the concentration at half-maximal activity (AC50) under setting [1] was 3.55 µM [falling, full curve].
In the case of `COc1ccc(-c2nc3oc4cc(OC)ccc4c(=O)c3c(=O)n2Cc2ccco2)cc1`, under setting [1], the AC50 is 16.4 µM [falling, single point].
For the compound `Oc1cccc(Nc2nc(O)c(/C=C3\C=Nc4ccccc43)s2)c1`, the half-maximal activity concentration (AC50) under setting [1] is 20 µM [falling, partial curve, poor fit].
As for `Brc1ccc(Nc2nc3ccccc3n3nnnc23)cc1`, the concentration at half-maximal activity (AC50) under setting [1] is 25.9 µM [falling, partial curve, poor fit].
